Data as given in PubChem BioAssay AID686937 (Drosophila RNAi Screening Center, 2013)
Screen: 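Genes in the fly needed for secretion of protein constitutively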 (primary screen). System: Drosophila S2 cells expressing secreted horseradish peroxidase. Knock-down reagent: long dsRNA against Drosophila genes. Timing: about 5.5 days (5 days dsRNA, then 12 h reporter induction). Conditions: reporter expression induced after 5 days of dsRNA, read 12 h later; inducer not stated. Detection: 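After 5 days of dsRNA and 12 h of reporter induction, medium peroxidase read by chemiluminescence and scored as per-plate z-score; higher values mean more reporter released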. Reading the numbers: z-score: higher = more reporter secreted into medium.
In all, the deposit lists about 23,000 reagents; this is a random part of those that have a named target and a result. 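Reduced-secretion tags in replicate 1 do not always agree with the z-scores; no criterion for assigning the tags was given.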 Reagents against one gene are numbered here. Names joined by + are all predicted targets of the reagent. Not given: the amount of reagent.

| target gene | reagent no. | z-score, replicate 1 | z-score, replicate 2 | z-score, replicate 3 | z-score, replicate 4 | phenotype, replicate 1 |
| --- | --- | --- | --- | --- | --- | --- |
| mRpS17 | 1 | 0.38 | -0.15 | – | – | – |
| Rpp14b | 1 | -0.14 | -0.29 | – | – | – |
| Nelf-E | 1 | 0.63 | 0.49 | – | – | – |
| St3 | 1 | 0.56 | 0.42 | – | – | – |
| St3 | 2 | 0.2 | 0.11 | – | – | – |
| GstD2 | 1 | 0.18 | -0.28 | – | – | – |
| Fas1 | 1 | -0.17 | 0.04 | – | – | – |
| CG2201 | 1 | -0.25 | -0.22 | – | – | – |
| CG8750 | 1 | 0.08 | 0.33 | – | – | – |
| CG13171 | 1 | 0.42 | 0.19 | – | – | – |
| RpL21 | 1 | -3.17 | -4.38 | – | – | reduced secretion |
| CG5149 | 1 | -3.8 | 0.52 | – | – | reduced secretion |
| Kpc1 | 1 | 0.29 | 0.7 | – | – | – |
| ppk10 | 1 | 0.83 | 0.08 | – | – | – |
| Tfb4 | 1 | -1.73 | -1.26 | – | – | reduced secretion |
| CG34199 | 1 | 0.14 | 0.17 | – | – | – |
| CG13088 | 1 | 0.06 | 0.23 | – | – | – |
| t-Grip91 | 1 | 0.42 | 0.41 | – | – | – |
| CG1637 | 1 | 0.23 | 0.15 | – | – | – |
| CG1637 | 2 | 0.29 | 0.48 | – | – | – |
| CG1637 | 3 | 0.27 | 0.24 | – | – | – |
| MtnC | 1 | -0.41 | 0.55 | – | – | – |
| Cpr78Cb | 1 | 0.17 | 0.43 | – | – | – |
| CG40191 | 1 | -0.09 | 0.18 | – | – | – |
| prd1 | 1 | 0.4 | 0.71 | – | – | – |
| Rif1 | 1 | -0.14 | 0.17 | – | – | – |
| CG12698 | 1 | 0.19 | 0.34 | – | – | – |
| CG7824 | 1 | 0.41 | 0.36 | – | – | – |
| AsnRS-m | 1 | 0.08 | 0.28 | – | – | – |
| woc | 1 | -1.54 | -1.17 | – | – | reduced secretion |
| Gcat | 1 | 0.7 | 0.62 | – | – | – |
| CG3777 | 1 | -1.66 | -0.81 | – | – | – |

13 of these entries, set out differently.
GstD2 → z-score, replicate 1 = 0.18; z-score, replicate 2 = -0.28
Fas1 → z-score, replicate 1 = -0.17; z-score, replicate 2 = 0.04
CG2201 → z-score, replicate 1 = -0.25; z-score, replicate 2 = -0.22
CG8750 → z-score, replicate 1 = 0.08; z-score, replicate 2 = 0.33
CG13171 → z-score, replicate 1 = 0.42; z-score, replicate 2 = 0.19
RpL21 → z-score, replicate 1 = -3.17; z-score, replicate 2 = -4.38; phenotype, replicate 1 = reduced secretion
CG5149 → z-score, replicate 1 = -3.8; z-score, replicate 2 = 0.52; phenotype, replicate 1 = reduced secretion
Kpc1 → z-score, replicate 1 = 0.29; z-score, replicate 2 = 0.7
ppk10 → z-score, replicate 1 = 0.83; z-score, replicate 2 = 0.08
Tfb4 → z-score, replicate 1 = -1.73; z-score, replicate 2 = -1.26; phenotype, replicate 1 = reduced secretion
CG34199 → z-score, replicate 1 = 0.14; z-score, replicate 2 = 0.17
CG13088 → z-score, replicate 1 = 0.06; z-score, replicate 2 = 0.23
t-Grip91 → z-score, replicate 1 = 0.42; z-score, replicate 2 = 0.41

More reagents:
| target gene | reagent no. | z-score, replicate 1 | z-score, replicate 2 | z-score, replicate 3 | z-score, replicate 4 | phenotype, replicate 1 |
| --- | --- | --- | --- | --- | --- | --- |
| CG42535 | 1 | -0.07 | 0.15 | – | – | – |
| Dlc90F | 1 | 0.26 | 0.38 | – | – | – |
| Or59c | 1 | 0.36 | 0.42 | – | – | – |
| Ehbp1 | 1 | 0.33 | 0.25 | – | – | – |
| CG14778 | 1 | 0.09 | 0.08 | – | – | – |
| CG5781 | 1 | 0.39 | 0.33 | – | – | – |
| CG7546 | 1 | 0.41 | 0.29 | – | – | – |
| CG7546 | 2 | -0.03 | 0.5 | 0.53 | 0.22 | – |
| CG7546 | 3 | 0.51 | 0.45 | – | – | – |
| Acam + CG17770 | 1 | 0.28 | 0.37 | – | – | – |
| Acam + CG17770 | 2 | 0.14 | 0.29 | – | – | – |
| CG10332 (retired record) + IM18 | 1 | 0.03 | 0.02 | – | – | – |
| CG12321 | 1 | 0.26 | 0.36 | – | – | – |
| CG13051 | 1 | 0.16 | 0.16 | – | – | – |
| bam | 1 | 0.4 | 0.33 | – | – | – |
| srw | 1 | 0.26 | 0.03 | – | – | – |
| Tengl2 | 1 | -0.41 | 0.33 | – | – | – |
| nrv1 | 1 | 0.64 | 0.4 | – | – | – |
| CG42613 | 1 | 0.36 | 0.63 | – | – | – |
| CG42613 | 2 | -0.9 | -1 | – | – | – |
| CG42613 | 3 | 0.17 | 0.5 | – | – | – |
| CG42613 | 4 | -0.38 | -0.05 | – | – | – |
| CG12990 | 1 | 0.19 | 0.35 | – | – | – |
| CG16713 | 1 | -0.04 | 0.37 | – | – | – |
| CG6055 | 1 | 0.35 | 0.18 | – | – | – |
| Alms1a | 1 | 0.33 | 0.05 | – | – | – |
| Atf-2 + veg (retired record) | 1 | 0.05 | -0.13 | – | – | – |
| Atf-2 + veg (retired record) | 2 | 0.46 | 0.42 | – | – | – |
| CG14811 | 1 | 0.23 | 0.42 | – | – | – |
| CG3065 | 1 | 0.38 | 0.53 | – | – | – |
| CG31183 | 1 | 0.08 | 0.06 | – | – | – |
| CG31183 | 2 | 0.36 | 0.31 | – | – | – |
| CG43260 (retired record) | 1 | 0.19 | 0.71 | – | – | – |
| CG32055 | 1 | 0.18 | 0.09 | – | – | – |
| mus302 | 1 | 0.11 | -0.1 | – | – | – |
| RpS3 | 1 | -2.22 | -2.73 | – | – | reduced secretion |
| escl | 1 | 0.09 | 0.35 | – | – | – |
| Tmem214 | 1 | 0.23 | 0.32 | – | – | – |
| Tmem214 | 2 | 0.59 | 0.16 | – | – | – |
| CG14000 | 1 | 0.06 | 0.07 | – | – | – |
| CG3502 + CG9863 | 1 | 0.31 | 0.4 | – | – | – |
| rumi | 1 | 0.18 | 0.35 | – | – | – |
| CR33013 | 1 | -0.42 | -0.36 | – | – | – |
| CG14864 | 1 | 0.49 | 0.6 | – | – | – |
| Vps24 | 1 | 0.72 | -0.08 | -0.21 | 0.41 | – |
| tos | 1 | 0.33 | 0.28 | – | – | – |
| CG33127 | 1 | 0.33 | 0.49 | – | – | – |
| ine | 1 | 0.14 | 0.38 | – | – | – |
| Amun | 1 | -1.63 | -1.84 | – | – | reduced secretion |
| hng2 | 1 | 0.21 | 0.22 | – | – | – |
